According to US20220340899A1 (UNIVERSITÄT BERN, priority 2019, published 2022):

Assay: general procedure: Fmoc solid-phase peptide synthesis; Tentagel S RAM resin (0.22-0.25 mmol/g), 300 mg; PyBOP/DIPEA (manual); Oxyma/DIC (synthesiser)
Conditions: whole synthesis, trifluoroacetate salt; for isolated yield: scale of the general procedure 0.10 mmol (CEM Liberty Blue)

Row | Substance | isolated yield [%] | isolated mass [mg] | further results
1 | (kl)8(kkl)4(kkl)2kk(C18)a | 18 | 114 | 
2 | (kl)8(kkl)4(kll)2kfff |  |  | isolated yield (run 1): 1%; isolated mass (run 1): 0.7 mg
3 | (KL)8(KKL)4(KLL)2KK(C16)K(C16) | 4 | 26.8 | 
4 | (KL)8(KKL)4(KLL)2KK(C20) | 1 | 4.1 | 
5 | (kl)8(kkl)4(kll)2kaocaocaocaoc | 3 | 13.3 | 
6 | (kl)8(krl)4(kll)2knlenlenlenle | 5 | 17.3 | 
7 | (kl)8(KKL)4(KLL)2KK(C16)K(C16) | 2 | 16.2 | 
8 | (kl)8(kkl)4(kll)2klllc | 21 | 129.5 | 
9 | (rl)8(kkl)4(kll)2knlenlenlenle | 1 | 1.6 | 
10 | (KL)8(KKL)4(KLL)2KLLLL | 8 | 52.7 | 
11 | (KL)8(KKL)4(KKL)2KK(C18)K(C18) |  |  | isolated yield (run 1): 2%; isolated mass (run 1): 2.3 mg
12 | (KL)8(KKL)4(KLL)2KK(C18) | 2 | 6.0 | 
13 | (KL)8(KKL)4(KLL)2KK(C18)K(C18) | 1 | 2.4 | 
14 | (rl)8(krl)4(krl)2kk(C18)c | 14 | 26.6 | 
15 | (KL)8(KKL)4(KLL)2KK(C28) | 1 | 3.1 | 
16 | (kl)8(kkl)4(kll)2kaocaocaoc | 2 | 8.4 | 
17 | (KL)8(KKL)4(KKL)2KLLLL | 2 | 8.5 | 
18 | (KL)8(KKL)4(KLL)2KK(C22) |  |  | isolated yield (run 1): 8%; isolated yield (run 2): 1%; isolated mass (run 1): 11.4 mg; isolated mass (run 2): 3.2 mg
19 | (KL)8(KKL)4(KLL)2KWWWWW | 1 | 1.7 | 
20 | (rl)8(krl)4(krl)2kk(C18)a | 12 | 25 | 
21 | (KH)8(KKH)4(KKL)2KK(Oleic Acid)K(Oleic Acid) | 3 | 2.7 | 

Row | Substance | isolated yield [%] | isolated mass [mg] | further results
22 | (KL)8(KKL)4(KKL)2KK(Oleic Acid)C |  |  | isolated yield (run 1): 2%; isolated yield (run 2): 4%; isolated mass (run 1): 2.3 mg; isolated mass (run 2): 5.85 mg
23 | (kl)8(kkl)4(kkl)2kk(C16)c | 3 | 6.04 | 
24 | (KL)8(KKL)4(KLL)2KK(C26) | 1 | 3.1 | 
25 | (KL)8(KKL)4(KLL)2KNleNleNleNle | 1 | 5.1 | 
26 | (kl)8(kkl)4(kll)2knlenlenlenle | 4 | 19.3 | 
27 | (KL)8(KKL)4(KLL)2KK(C14)K(C14) | 1 | 2.3 | 
28 | (rl)8(krl)4(krl)2kk(C18) | 15 | 13 | 
29 | (RL)8(KRL)4(KLL)2KLLLL | 5 | 25.9 | 
30 | (KL)8(KLL)4(KLL)2KLLLL | 2 | 10.1 | 
31 | (kl)8(kkl)4(kkl)2kk(C16) | 16 | 22 | 
32 | (kl)8(kkl)4(kll)2kk(C16)k(C16) | 7 | 128.4 | 
33 | (KL)8(KKL)4(KLL)2KK(C24) | 1 | 4.5 | 
34 | (kl)8(kkl)4(kll)2kllll | 11 | 73.6 | 
35 | (rl)8(krl)4(krl)2kk(C16)c | 4 | 9 | 
36 | (KL)8(KKL)4(KLL)2KWWWW | 1 | 4.5 | 
37 | (KL)8(KKL)4(KLL)2KFFF | 3 | 13.7 | 
38 | (rl)8(krl)4(krl)2kk(C16) | 11 | 14 | 
39 | (KL)8(KKL)4(KLL)2KLLLLL | 1 | 4.7 | 
40 | (kl)8(kkl)4(kkl)2kk(C18) | 23 | 20 | 
41 | (kl)8(kkl)4(knlenle)2kk(C16)k(C16) |  | 12.7 | isolated yield (run 1): 3%
